Measurements as given in PubChem BioAssay AID1671190 (National Center for Advancing Translational Sciences (NCATS), 2021).
Where “and” joins values, the source holds several entries; their conditions need not be identical. Equal values may be shown once. The whole screen tested about 580,000 compounds, of which about 6,100 (1.1%) were called active. This list was built around the results that the source calls inconclusive (neither active nor inactive); the mix of calls is not that of the screen. The call rests on the fitted dose curve; in most records, active means well fitted inhibition curve with a large enough effect; inconclusive means small, poorly fitted or top-dose-only effect, or another doubt; inactive means no such curve, though single readings can be large or run the other way. A potency beside an inconclusive call is a rough fit, not a confirmed value.

The chains behind the UniProt entries cited, without tags or fusion partners.
UniProt P18054, whole entry, looked up: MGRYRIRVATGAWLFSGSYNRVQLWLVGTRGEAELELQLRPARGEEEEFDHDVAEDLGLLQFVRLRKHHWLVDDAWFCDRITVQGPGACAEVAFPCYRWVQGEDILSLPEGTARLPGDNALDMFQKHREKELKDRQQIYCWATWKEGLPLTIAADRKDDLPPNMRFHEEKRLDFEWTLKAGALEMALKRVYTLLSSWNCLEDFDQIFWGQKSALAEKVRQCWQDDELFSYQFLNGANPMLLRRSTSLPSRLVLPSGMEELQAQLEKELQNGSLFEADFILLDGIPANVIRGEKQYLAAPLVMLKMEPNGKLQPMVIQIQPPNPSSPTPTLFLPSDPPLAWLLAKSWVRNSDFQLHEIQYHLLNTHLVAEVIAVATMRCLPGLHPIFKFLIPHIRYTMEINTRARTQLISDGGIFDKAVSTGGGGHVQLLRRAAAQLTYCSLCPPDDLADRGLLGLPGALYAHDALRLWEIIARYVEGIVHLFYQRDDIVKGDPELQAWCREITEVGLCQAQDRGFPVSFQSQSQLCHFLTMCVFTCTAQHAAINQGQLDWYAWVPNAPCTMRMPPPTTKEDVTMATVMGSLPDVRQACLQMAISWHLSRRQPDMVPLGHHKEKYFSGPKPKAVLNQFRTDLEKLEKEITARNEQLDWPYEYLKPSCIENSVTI

Molecular target: Polyunsaturated fatty acid lipoxygenase ALOX12 (Homo sapiens) (UniProt P18054)
Test: Primary qHTS assay for inhibitors of human arachidonate 12S-lipoxygenase (ALOX12): Round 2
Conditions: purified 12hLO, xylenol orange hydroperoxide absorbance; activity change, negative = inhibition: at 108 µM (top of the series) unless noted
Summary of the method: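 Purified human 12hLO at 150 nM in 25 mM Hepes, 0.01% Triton X-100, pH 7.0, preincubated 15 min at room temperature with compound. Reaction started with 40 uM arachidonic acid, 30 min at room temperature. Hydroperoxide measured by Fe-xylenol orange, 573/405 nm absorbance ratio.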
On the % scale 0 is the no-effect control and ±100 the full control effect; potency means the concentration at half of the fitted maximal effect.

| SMILES | activity change, negative = inhibition | Potency |
| --- | --- | --- |
| Cc1c(Cl)ccc2c(C(N)=O)cc(-c3ccccn3)nc12 | inactive: 3.84% | – |
| CC1CCN(CCC(=O)Nc2ccc(Br)cc2)CC1 | – | inconclusive: 5.62 µM [inhibitor, full curve, poor fit] |
| CCCCn1cc(SCC(=O)O)c2ccccc21 | – | inconclusive: 112 µM [inhibitor, single point] |
| COc1ccc(Cl)cc1C(=O)N1CCC2(CC1)NC(=O)N(c1cccc(F)c1)N2 | – | inconclusive: 1.58 µM [inhibitor, full curve, poor fit] |
| O=C(NC(=S)NC1CCCc2ccccc21)c1ccco1 (stereo not given) | – | inconclusive: 22.4 µM [inhibitor, partial curve, poor fit] |
| CCOc1ccccc1NC(=O)c1cc(C(=O)c2cc(Br)ccc2O)coc1=N | – | inconclusive: 44.7 µM [inhibitor, partial curve, poor fit] |
| CCOC(=O)c1c(/N=C/c2cc([N+](=O)[O-])ccc2O)sc(C)c1C | – | active: 35.5 µM |
| COc1cc(C=C2C(=O)OC(c3ccccc3)OC2=O)cc(Br)c1O (stereo not given) | – | inconclusive: 17.8 µM [inhibitor, full curve, poor fit] |
| c1ccc(CNc2ccc(N3CCOCC3)cc2)cc1 | – | inconclusive: 39.8 µM [inhibitor, partial curve, poor fit] |
| CC(=O)c1cccc(Nc2nc(-c3cccc(C)c3)nc3ccccc23)c1 | – | active: 28.2 µM and active: 6.31 µM |
| CCOc1cc(/C=C(/C#N)C(=O)Nc2ccccc2C(=O)O)ccc1OC | – | inconclusive: 79.4 µM [inhibitor, single point] |
| O=C(/C=C/c1cccc(Cl)c1Cl)c1ccccc1OC(F)F | – | inconclusive: 39.8 µM [inhibitor, partial curve, poor fit] |
| CC(C)CCNC(=O)CCS(=O)(=O)c1cccc2nonc12 | inactive: 0% | – |
| Cc1ccc(C)c(NC(=O)c2nn(-c3ccccc3)c(=O)c3ccccc23)c1 | inactive: 24.8% | – |
| C=CCOc1ccc(NC(=O)c2ccc(Cl)cc2)cc1 | – | inconclusive: 25.1 µM [inhibitor, single point] |
| O=S(=O)(c1ccccc1)N1CCN(Cc2cc3c(cc2Br)OCCO3)CC1 | – | inconclusive: 39.8 µM [inhibitor, partial curve, poor fit] |
| Cc1cc(NCCOCCO)n2ncc(-c3ccc(Cl)cc3)c2n1 | inactive: 33.2% | – |
| O=S(=O)(C1CC1)N1CCC(c2nc(C3CC3)no2)C1 (stereo not given) | inactive: -7.83% | – |
| CCC(CC)NC(=O)/C=C/c1ccc(Cl)cc1 | inactive: 15.2% | – |
| COc1ccc(COC(=O)CCS(=O)(=O)c2ccc(C)cc2)cc1 | inactive: -29.4% | – |

One compound at a time, from the list above. Order of values: activity change, negative = inhibition	Potency
C=CCOc1ccc(NC(=O)c2ccc(Cl)cc2)cc1 in the list: –	inconclusive: 25.1 µM [inhibitor, single point]
COc1cc(C=C2C(=O)OC(c3ccccc3)OC2=O)cc(Br)c1O (stereo not given) in the list: –	inconclusive: 17.8 µM [inhibitor, full curve, poor fit]
